The results in this text go back to the supplement of paper PMC12819154, “High-throughput peptide-centric local stability assay extends protein–ligand identification to membrane proteins, tissues and bacteria” (Nature Structural & Molecular Biology, 2025).

Sequences of proteins named here, by UniProt entry; tags and fusion partners are left off. A change or cut given only in a name is not applied to a line headed by its entry.
UniProt Q9BRL6: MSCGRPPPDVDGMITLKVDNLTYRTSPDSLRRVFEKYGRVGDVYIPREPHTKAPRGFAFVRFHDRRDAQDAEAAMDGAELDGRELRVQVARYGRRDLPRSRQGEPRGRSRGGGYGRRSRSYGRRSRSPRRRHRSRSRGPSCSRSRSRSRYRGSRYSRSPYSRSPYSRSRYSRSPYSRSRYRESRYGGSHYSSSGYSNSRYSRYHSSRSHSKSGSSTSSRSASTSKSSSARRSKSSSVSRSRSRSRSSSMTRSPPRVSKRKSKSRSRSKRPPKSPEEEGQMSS
UniProt Q99653: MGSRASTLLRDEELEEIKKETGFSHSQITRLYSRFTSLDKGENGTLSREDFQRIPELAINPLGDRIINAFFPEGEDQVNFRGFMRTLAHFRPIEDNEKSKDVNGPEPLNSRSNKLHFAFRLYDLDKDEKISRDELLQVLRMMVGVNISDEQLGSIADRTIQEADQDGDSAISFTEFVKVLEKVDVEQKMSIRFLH
UniProt Q99909, whole entry: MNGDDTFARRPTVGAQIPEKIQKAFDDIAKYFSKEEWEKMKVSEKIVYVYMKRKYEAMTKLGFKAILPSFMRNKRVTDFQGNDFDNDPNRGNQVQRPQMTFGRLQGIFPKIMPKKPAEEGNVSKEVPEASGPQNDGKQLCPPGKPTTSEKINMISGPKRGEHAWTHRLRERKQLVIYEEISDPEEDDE
UniProt Q9BRG1: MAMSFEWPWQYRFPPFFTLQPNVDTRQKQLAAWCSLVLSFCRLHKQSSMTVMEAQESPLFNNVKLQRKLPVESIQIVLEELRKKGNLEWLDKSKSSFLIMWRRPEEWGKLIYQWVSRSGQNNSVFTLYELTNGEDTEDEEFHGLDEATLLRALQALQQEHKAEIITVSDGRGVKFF
UniProt Q9BR61: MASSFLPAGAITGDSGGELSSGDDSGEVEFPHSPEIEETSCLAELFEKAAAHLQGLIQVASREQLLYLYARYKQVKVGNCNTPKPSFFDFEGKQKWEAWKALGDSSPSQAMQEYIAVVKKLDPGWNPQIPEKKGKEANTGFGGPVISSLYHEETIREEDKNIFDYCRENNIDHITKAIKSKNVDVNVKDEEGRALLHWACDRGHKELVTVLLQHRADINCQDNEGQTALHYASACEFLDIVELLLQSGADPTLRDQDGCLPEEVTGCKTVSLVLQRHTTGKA
UniProt Q99708: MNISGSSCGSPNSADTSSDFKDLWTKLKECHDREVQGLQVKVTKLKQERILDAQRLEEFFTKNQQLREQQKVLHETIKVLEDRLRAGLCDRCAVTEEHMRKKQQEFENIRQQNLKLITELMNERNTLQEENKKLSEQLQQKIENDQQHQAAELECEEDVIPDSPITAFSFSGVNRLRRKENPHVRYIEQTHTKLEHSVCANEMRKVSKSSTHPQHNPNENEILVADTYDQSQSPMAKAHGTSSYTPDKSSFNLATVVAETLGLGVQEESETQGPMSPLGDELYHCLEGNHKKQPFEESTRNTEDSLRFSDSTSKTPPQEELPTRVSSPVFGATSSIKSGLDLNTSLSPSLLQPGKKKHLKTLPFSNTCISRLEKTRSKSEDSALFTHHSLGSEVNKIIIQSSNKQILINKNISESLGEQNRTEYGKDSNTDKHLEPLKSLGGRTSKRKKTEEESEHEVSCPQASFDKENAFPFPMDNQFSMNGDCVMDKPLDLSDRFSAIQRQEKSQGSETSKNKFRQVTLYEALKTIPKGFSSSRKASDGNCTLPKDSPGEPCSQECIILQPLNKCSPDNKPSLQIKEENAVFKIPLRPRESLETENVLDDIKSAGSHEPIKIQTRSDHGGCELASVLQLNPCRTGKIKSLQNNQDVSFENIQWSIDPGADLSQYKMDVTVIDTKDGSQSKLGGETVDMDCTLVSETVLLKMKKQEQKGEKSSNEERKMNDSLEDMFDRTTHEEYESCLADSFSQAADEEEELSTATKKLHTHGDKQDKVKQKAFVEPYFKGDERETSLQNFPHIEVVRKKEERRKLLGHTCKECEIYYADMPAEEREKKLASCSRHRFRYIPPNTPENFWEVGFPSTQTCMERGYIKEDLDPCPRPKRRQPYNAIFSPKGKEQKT
UniProt Q9BRA2: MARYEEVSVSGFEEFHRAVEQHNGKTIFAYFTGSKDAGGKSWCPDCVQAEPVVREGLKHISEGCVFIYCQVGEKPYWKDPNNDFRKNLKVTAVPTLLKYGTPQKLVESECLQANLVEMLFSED
UniProt Q96T49: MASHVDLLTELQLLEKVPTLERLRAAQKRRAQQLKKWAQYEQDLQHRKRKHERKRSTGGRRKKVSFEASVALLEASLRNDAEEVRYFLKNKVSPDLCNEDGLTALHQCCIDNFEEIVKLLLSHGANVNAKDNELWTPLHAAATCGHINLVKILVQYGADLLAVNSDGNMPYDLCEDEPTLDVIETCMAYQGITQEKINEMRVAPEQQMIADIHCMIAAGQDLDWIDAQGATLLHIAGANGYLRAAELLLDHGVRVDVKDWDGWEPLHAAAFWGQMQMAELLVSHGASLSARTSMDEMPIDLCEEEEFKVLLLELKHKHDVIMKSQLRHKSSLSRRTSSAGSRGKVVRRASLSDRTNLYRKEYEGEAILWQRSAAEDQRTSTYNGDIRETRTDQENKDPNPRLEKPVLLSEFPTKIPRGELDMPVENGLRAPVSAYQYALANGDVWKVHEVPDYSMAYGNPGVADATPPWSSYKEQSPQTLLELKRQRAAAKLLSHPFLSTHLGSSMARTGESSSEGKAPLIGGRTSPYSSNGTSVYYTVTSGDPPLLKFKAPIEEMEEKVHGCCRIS
UniProt Q9BQE9, whole entry: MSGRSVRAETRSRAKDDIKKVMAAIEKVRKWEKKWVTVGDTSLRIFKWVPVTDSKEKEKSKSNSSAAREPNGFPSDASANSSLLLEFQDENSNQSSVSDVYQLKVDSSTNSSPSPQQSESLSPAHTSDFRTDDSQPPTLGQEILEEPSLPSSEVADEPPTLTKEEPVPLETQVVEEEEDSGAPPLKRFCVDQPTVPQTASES
UniProt Q9BPY3: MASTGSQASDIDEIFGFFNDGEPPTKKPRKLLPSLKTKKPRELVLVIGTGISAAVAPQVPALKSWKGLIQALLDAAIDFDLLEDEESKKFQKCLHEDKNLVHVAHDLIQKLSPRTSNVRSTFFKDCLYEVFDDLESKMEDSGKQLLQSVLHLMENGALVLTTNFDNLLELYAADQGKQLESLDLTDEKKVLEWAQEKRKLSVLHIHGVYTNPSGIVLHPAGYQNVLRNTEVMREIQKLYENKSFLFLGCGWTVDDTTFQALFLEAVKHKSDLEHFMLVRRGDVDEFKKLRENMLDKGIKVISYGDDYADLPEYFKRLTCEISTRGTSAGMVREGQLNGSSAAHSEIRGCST
UniProt Q96T23: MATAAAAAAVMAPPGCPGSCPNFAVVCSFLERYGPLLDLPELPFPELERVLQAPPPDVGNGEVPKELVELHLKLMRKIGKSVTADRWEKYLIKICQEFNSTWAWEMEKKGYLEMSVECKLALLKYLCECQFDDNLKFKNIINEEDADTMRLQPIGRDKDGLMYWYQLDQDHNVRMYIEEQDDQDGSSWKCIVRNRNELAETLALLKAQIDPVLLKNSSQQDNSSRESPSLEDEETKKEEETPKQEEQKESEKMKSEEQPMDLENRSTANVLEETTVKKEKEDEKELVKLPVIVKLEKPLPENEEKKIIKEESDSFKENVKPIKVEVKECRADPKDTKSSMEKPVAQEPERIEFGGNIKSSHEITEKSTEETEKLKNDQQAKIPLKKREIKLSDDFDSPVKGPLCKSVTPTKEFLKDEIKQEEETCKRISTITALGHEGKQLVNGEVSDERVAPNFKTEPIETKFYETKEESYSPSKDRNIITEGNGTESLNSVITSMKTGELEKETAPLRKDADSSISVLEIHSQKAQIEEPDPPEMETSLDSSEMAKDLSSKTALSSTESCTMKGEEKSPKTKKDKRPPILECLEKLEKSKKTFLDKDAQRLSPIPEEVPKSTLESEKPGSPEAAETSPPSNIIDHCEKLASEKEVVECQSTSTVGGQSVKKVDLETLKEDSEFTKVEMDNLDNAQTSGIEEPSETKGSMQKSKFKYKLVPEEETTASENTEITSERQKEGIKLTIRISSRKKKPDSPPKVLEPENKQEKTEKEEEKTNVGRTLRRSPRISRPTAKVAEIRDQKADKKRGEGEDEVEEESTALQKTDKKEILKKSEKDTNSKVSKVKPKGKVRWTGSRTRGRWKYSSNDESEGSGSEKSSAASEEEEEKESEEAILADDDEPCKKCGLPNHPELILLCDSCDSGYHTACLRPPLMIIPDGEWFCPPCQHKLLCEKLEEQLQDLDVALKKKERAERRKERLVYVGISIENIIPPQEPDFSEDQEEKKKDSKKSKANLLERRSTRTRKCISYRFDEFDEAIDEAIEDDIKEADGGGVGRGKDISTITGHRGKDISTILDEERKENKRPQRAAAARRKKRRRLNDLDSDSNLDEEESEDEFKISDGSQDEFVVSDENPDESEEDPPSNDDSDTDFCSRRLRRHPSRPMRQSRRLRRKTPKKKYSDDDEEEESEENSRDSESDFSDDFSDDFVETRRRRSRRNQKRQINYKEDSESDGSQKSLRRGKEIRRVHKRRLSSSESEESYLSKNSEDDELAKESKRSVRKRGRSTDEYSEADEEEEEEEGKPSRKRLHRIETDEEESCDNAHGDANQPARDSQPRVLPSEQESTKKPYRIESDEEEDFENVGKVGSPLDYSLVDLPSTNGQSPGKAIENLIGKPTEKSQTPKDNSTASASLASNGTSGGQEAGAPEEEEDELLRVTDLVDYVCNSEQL
UniProt Q96SN8: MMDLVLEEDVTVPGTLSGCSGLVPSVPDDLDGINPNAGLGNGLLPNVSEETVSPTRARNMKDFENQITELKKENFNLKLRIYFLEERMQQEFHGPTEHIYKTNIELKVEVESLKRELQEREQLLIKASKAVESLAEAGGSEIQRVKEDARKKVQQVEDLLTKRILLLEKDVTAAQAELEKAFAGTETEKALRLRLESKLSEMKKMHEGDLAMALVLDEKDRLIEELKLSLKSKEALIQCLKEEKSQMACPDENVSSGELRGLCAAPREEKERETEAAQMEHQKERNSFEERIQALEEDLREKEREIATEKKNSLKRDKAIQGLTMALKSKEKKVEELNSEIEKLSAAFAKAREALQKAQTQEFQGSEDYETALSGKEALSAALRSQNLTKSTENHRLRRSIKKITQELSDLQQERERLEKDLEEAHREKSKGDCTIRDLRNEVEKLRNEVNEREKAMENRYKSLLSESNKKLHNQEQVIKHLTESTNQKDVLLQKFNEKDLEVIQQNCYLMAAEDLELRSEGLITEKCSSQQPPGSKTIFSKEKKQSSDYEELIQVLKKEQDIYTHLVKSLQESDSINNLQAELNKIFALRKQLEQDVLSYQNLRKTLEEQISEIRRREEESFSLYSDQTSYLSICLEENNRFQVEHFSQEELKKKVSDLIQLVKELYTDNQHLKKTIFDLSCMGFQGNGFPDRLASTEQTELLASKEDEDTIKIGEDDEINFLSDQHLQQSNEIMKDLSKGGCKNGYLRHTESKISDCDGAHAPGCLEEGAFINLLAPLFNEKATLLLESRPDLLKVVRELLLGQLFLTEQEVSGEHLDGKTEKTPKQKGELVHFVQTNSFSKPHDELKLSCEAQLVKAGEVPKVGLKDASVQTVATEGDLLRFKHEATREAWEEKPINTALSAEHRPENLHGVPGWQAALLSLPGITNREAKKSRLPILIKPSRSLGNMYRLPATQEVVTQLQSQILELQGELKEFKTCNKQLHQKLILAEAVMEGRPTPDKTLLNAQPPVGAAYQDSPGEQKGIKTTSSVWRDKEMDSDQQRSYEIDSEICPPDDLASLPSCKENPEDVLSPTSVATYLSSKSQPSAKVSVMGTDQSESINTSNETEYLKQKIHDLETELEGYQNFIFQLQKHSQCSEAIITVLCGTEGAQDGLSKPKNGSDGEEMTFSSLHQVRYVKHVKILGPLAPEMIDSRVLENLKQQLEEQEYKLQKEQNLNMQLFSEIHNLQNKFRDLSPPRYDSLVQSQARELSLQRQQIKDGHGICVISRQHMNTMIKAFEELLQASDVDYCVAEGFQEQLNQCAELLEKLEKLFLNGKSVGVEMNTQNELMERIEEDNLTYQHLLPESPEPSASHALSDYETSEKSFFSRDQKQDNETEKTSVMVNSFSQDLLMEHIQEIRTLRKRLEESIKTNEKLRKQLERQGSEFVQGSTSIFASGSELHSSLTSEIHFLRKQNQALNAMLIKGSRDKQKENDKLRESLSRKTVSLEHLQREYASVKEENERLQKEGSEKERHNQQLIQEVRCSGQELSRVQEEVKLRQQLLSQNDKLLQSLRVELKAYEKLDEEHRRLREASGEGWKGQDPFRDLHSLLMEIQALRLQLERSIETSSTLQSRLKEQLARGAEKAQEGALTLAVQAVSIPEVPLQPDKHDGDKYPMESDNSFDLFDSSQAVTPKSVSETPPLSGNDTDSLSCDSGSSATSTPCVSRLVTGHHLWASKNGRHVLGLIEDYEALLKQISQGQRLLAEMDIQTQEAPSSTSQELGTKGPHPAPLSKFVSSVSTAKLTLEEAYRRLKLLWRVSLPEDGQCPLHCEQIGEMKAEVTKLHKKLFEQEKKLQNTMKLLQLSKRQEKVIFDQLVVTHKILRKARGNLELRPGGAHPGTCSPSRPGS

The other results are listed elsewhere or left out. Most entries show no effect beyond the scatter of the controls.

Compound in the assay: Cc1nc(Nc2ncc(C(=O)Nc3c(C)cccc3Cl)s2)cc(N2CCN(CCO)CC2)n1 [dasatinib]
The assay can be described thus: log2 fold change of tryptic peptide abundance, ligand vs vehicle (limited proteolysis) (log2 ratio); higher = more trypsin-susceptible (destabilized). The note with it: ligand concentration: 5 uM; sample: K562 cleared lysate.
Consider “UniProt Q9BUG6 (peptide sequence: ELQILPR, peptide start residue: 182)”, for which the log2 fold change is -0.359.

For “UniProt Q9BU76 (peptide sequence: AEDQTESSCESHRK, peptide start residue: 171)”, the log2 fold change was 0.13.

Regarding “FEM1A (peptide sequence: VLLDCGADPDSR, peptide start residue: 566) (UniProt Q9BSK4)”, the log2 fold change is 0.737.

Take “ARPC5L (peptide sequence: GFEKPTENSSAVLLQWHEK, peptide start residue: 115) (UniProt Q9BPX5)”: the log2 fold change was -0.274.

For “SRSF8 (peptide sequence: VGDVYIPREPHTK, peptide start residue: 40) (UniProt Q9BRL6)”, the log2 fold change was -0.144.

For the target “UniProt Q99653 (peptide sequence: IPELAINPLGDR, peptide start residue: 54)”, the log2 fold change is -0.521.

“PNKP (peptide sequence: RVAIDNTNPDAASR, peptide start residue: 418) (UniProt Q96T60)”: the log2 fold change amounted to 0.431.

Turning to “TUBGCP2 (peptide sequence: ATPQVPVLR, peptide start residue: 880) (UniProt Q9BSJ2)”, the log2 fold change is -0.0962.

Turning to “PAFAH2 (peptide sequence: AMLAFLQK, peptide start residue: 352) (UniProt Q99487)”, the log2 fold change turned out to be 0.118.

“RTKN (peptide sequence: SLLVCNSR, peptide start residue: 74) (UniProt Q9BST9)”: the log2 fold change was -0.166.

In the case of “UniProt Q99909 (peptide sequence: GNQVQRPQMTFGR, peptide start residue: 91)”, the log2 fold change was 0.525.

For the target “VPS25 (peptide sequence: RPEEWGK, peptide start residue: 103) (UniProt Q9BRG1)”, the log2 fold change was -0.533.

Turning to “YME1L1 (peptide sequence: FDMQVTVPRPDVK, peptide start residue: 498) (UniProt Q96TA2)”, the log2 fold change came to 0.486.

For “TMEM209 (peptide sequence: TLDTFLR, peptide start residue: 241) (UniProt Q96SK2)”, the log2 fold change is -0.0901.

With “ACBD6 (peptide sequence: VGNCNTPKPSFFDFEGK, peptide start residue: 77) (UniProt Q9BR61)”, the log2 fold change was 0.378.

As for “UniProt Q9BSW2 (peptide sequence: QLWLQLK, peptide start residue: 181)”, the log2 fold change is -0.238.

As for “GFI1 (peptide sequence: AFSQSSNLITHSR, peptide start residue: 284) (UniProt Q99684)”, the log2 fold change was determined as 0.0596.

“HNRNPAB (peptide sequence: FGEVVDCTIK, peptide start residue: 92) (UniProt Q99729)”: the log2 fold change amounted to 0.0804.

Take “RBBP8 (peptide sequence: TEYGKDSNTDKHLEPLK, peptide start residue: 422) (UniProt Q99708)”: the log2 fold change stood at 0.978.

With “CDC5L (peptide sequence: HEDSAIPR, peptide start residue: 758) (UniProt Q99459)”, the log2 fold change is -0.431.

Turning to “STRBP (peptide sequence: AIDLMNALMR, peptide start residue: 385) (UniProt Q96SI9)”, the log2 fold change was -0.359.

Take “TXNDC17 (peptide sequence: NLKVTAVPTLLK, peptide start residue: 87) (UniProt Q9BRA2)”: the log2 fold change was 0.318.

On to “NOL10 (peptide sequence: LIEEEEEK, peptide start residue: 457) (UniProt Q9BSC4)”, for which the log2 fold change was determined as 0.197.

As for “THAP7 (peptide sequence: LKEGAVPTIFESFSK, peptide start residue: 84) (UniProt Q9BT49)”, the log2 fold change came out at 0.148.

“UniProt Q9BT25 (peptide sequence: TISKKPESTSFSAPR, peptide start residue: 122)”: the log2 fold change is -0.156.

Turning to “UniProt Q9BQP7 (peptide sequence: MILELGEDGFKEYTSNVFLQGKR, peptide start residue: 156)”, the log2 fold change is 0.599.

For “UniProt Q96T49 (peptide sequence: LEKPVLLSEFPTKIPR, peptide start residue: 402)”, the log2 fold change was -0.309.

Take “BCL7B (peptide sequence: WVTVGDTSLR, peptide start residue: 35) (UniProt Q9BQE9)”: the log2 fold change stood at 0.0166.

With “FAM118B (peptide sequence: EGQLNGSSAAHSEIR, peptide start residue: 333) (UniProt Q9BPY3)”, the log2 fold change was 0.0899.

For the target “DOK1 (peptide sequence: VGTDKTGVK, peptide start residue: 468) (UniProt Q99704)”, the log2 fold change was -0.226.

As to “MYBBP1A (peptide sequence: LSLVIRSPSLLQSGAK, peptide start residue: 1302) (UniProt Q9BQG0)”, the log2 fold change was 0.467.

Regarding “SMC6 (peptide sequence: QKIQAEHASHGDREEIMR, peptide start residue: 876) (UniProt Q96SB8)”, the log2 fold change was 0.636.

For “RSF1 (peptide sequence: QLVNGEVSDER, peptide start residue: 440) (UniProt Q96T23)”, the log2 fold change was -0.721.

As to “DHRS4 (peptide sequence: MLWMDKEKEESMK, peptide start residue: 222) (UniProt Q9BTZ2)”, the log2 fold change was -0.169.

Consider “ADAT1 (peptide sequence: NPPDYHQFK, peptide start residue: 494) (UniProt Q9BUB4)”, for which the log2 fold change was -0.269.

As for “CDK5RAP2 (peptide sequence: MHEGDLAMALVLDEKDR, peptide start residue: 205) (UniProt Q96SN8)”, the log2 fold change amounted to 0.562.

As for “ATF6B (peptide sequence: LSTEPSSEALGVGEVLHVK, peptide start residue: 107) (UniProt Q99941)”, the log2 fold change was -0.247.
